For the assay, the target named is CdxB (Caulobacter crescentus). Description: two-hybrid; bacterial two-hybrid: fusions to T25 and T18c fragments of adenylate cyclase co-expressed in E. coli BTH101, 0.5 mM IPTG, 30°C; lacZ reporter, β-galactosidase activity in Miller units (and X-gal plates).

No constants are given. Whether binding was seen depends on the method and setting. Binding calls can cover weak binding; strength is not graded here.

On to CdxA (from UniProt A0A0H3C2L6), for which the binding entry is listed as “binds”.

The values are drawn from PMC10462132.
